{
  "source": "patent US5554608A",
  "about": "“Inhibition of hair growth” (priority 1994, dated 1996)",
  "system": "PKC",
  "assay": "PKC activity assay in flank organ hair follicle homogenate (32P phosphorylation of acetylated-myelin basic protein)",
  "type": "biochemical, Golden Syrian hamster",
  "conditions": "at 500 μM",
  "description": "PKC activity was assayed in hair follicles isolated from flank organs using a commercial assay kit obtained from GIBCO BRL (Gaithersburg, Md.). The assay is based on the phosphorylation (incorporation of ^32 -P into) of acetylated-myelin basic protein. After isolation, the flank organ hair follicles were washed in phosphate-buffered saline and homogenized in a buffer containing 20 mM Tris, pH 7.5, 0.5 mM EDTA, 0.5% Triton X-100, 10 mM β-mercaptoethanol, and 25 μg/each of the protease inhibitors aprotinin and leupeptin. The hair follicle homogenate was added to the PKC reaction mixture at a final concentration of 10-20 μg/assay. The assay also included buffer, H2 O, phospholipid. The assay was performed in the presence or absence of select PKC inhibitors. The reaction mixture volume was 50 μl, the ^32 P-ATP substrate was added in a volume of 10 μl. The reaction proceeded at 32° for 15 minutes, whereupon a 16.3 μL aliquot was removed from the reaction mixture and spotted onto a paper filter. Filters were washed twice in 1% phosphoric acid with gentle shaking for 5 minutes. Filters were then washed twice in H2 O and placed in scintillation vials. ^32 P-Incorporation, a measure of the enzyme activity, was determined using standard liquid scintillation techniques.",
  "data": [
    {"smiles": "CSc1ccc2c(c1)N(CCC1CCCCN1C)c1ccccc1S2", "note": "(stereo not shown) [Thioridazine]", "values": [
      {"measurement": "inhibition of PKC activity", "value": 30, "unit": "%"}
    ]}
  ]
}
